Substitutions are numbered along the chain they refer to. Numbers in names are those of the source. No constants are given. Whether binding was seen depends on the method and setting. Some entries that bind do so weakly or less than the wild type. Where a sequence is shown, tags or fusion partners need not be part of it.
T1: (His)6-Cdc12(C40A,C278S) (S. cerevisiae) (UniProt P32468)
T1 sequence: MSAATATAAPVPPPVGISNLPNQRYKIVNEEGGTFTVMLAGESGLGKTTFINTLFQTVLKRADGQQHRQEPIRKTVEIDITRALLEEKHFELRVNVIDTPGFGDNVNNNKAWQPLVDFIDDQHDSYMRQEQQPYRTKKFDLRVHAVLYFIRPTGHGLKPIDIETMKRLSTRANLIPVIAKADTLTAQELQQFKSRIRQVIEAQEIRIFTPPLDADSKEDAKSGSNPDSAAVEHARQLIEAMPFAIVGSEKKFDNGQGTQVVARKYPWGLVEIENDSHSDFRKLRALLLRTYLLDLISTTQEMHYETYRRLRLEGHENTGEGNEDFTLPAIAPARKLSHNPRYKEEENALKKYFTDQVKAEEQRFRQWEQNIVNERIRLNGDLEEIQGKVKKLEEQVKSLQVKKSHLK

T2: (His)6-Cdc12(L310C), otherwise Cys-less (S. cerevisiae) (UniProt P32468)
T2 sequence: T1 sequence with L310C

B1: Cdc3(C124V,C253V,C279V) (protein, UniProt P32457 1-520)
chain: MSLKEEQVSIKQDPEQEERQHDQFNDVQIKQESQDHDGVDSQYTNGTQNDDSERFEAAESDVKVEPGLGMGITSSQSEKGQVLPDQPEIKFIRRQINGYVGFANLPKQWHRRSIKNGFSFNLLVVGPDGIGKTTLMKTLFNNDDIEANLVKDYEEELANDQEEEEGQGEGHENQSQEQRHKVKIKSYESVIEENGVKLNLNVIDTEGFGDFLNNDQKSWDPIIKEIDSRFDQYLDAENKINRHSINDKRIHAVLYFIEPTGHYLKPLDLKFMQSVYEKVNLIPVIAKSDILTDEEILSFKKTIMNQLIQSNIELFKPPIYSNDDAENSHLSERLFSSLPYAVIGSNDIVENYSGNQVRGRSYPWGVIEVDNDNHSDFNLLKNLLIKQFMEELKERTSKILYENYRSSKLAKLGIKQDNSVFKEFDPISKQQEEKTLHEAKLAKLEIEMKTVFQQKVSEKEKKLQKSETELFARHKEMKEKLTKQLKALEDKKKQLELSINSASPNVNHSPVPTKKKGFLR
B2: Cdc3(S407C), otherwise Cys-less (protein, UniProt P32457 1-520)
chain: B1 chain with S407C
B3: Shs1(Δ2–18/Δα0 E344C), otherwise Cys-less (protein, UniProt Q07657)
chain: MKRGITYTMLLVGPAGTGKTAFANNLLETKIFPHKYQYGKSNASISSNPEVKVIAPTKVVSFNSKNGIPSYVSEFDPMRANLEPGITITSTSLELGGNKDQGKPEMNEDDTVFFNLIMTHGIGENLDDSLSSEEVMSYLEQQFDIVLAEETRIKRNPRFEDTRVHVALYFIEPTGHGLREVDVELMKSISKYTNVLPIITRADSFTKEELTQFRKNIMFDVERYNVPIYKFEVDPEDDDLESMEENQALASLQPFAIITSDTRDSEGRYVREYPWGIISIDDDKISDLKVLKNVLFGSHLQEFKDTTQNLLYENYRSEKLSSVANACEIGPNSTKRQSNAPSLSNFASLISTGQFNSSQTLANNLRADTPRNQVSGNFKENEYEDNGEHDSAENEQEMSPVRQLGREIKQENENLIRSIKTESSPKFLNSPDLPERTKLRNISETVPYVLRHERILARQQKLEELEAQSAKELQKRIQELERKAHELKLREKLINQNKLNGSSSSINSLQQSTRSQIKKNDTYTDLASIASGRD
B4: Shs1(C29V,C148S,E344C) (protein, UniProt Q07657 1-551)
chain: MSTASTPPINLFRRKKEHKRGITYTMLLVGPAGTGKTAFANNLLETKIFPHKYQYGKSNASISSNPEVKVIAPTKVVSFNSKNGIPSYVSEFDPMRANLEPGITITSTSLELGGNKDQGKPEMNEDDTVFFNLIMTHGIGENLDDSLSSEEVMSYLEQQFDIVLAEETRIKRNPRFEDTRVHVALYFIEPTGHGLREVDVELMKSISKYTNVLPIITRADSFTKEELTQFRKNIMFDVERYNVPIYKFEVDPEDDDLESMEENQALASLQPFAIITSDTRDSEGRYVREYPWGIISIDDDKISDLKVLKNVLFGSHLQEFKDTTQNLLYENYRSEKLSSVANACEIGPNSTKRQSNAPSLSNFASLISTGQFNSSQTLANNLRADTPRNQVSGNFKENEYEDNGEHDSAENEQEMSPVRQLGREIKQENENLIRSIKTESSPKFLNSPDLPERTKLRNISETVPYVLRHERILARQQKLEELEAQSAKELQKRIQELERKAHELKLREKLINQNKLNGSSSSINSLQQSTRSQIKKNDTYTDLASIASGRD
B5: Cdc10(C266S) (protein, UniProt P25342 1-322)
chain: MDPLSSVQPASYVGFDTITNQIEHRLLKKGFQFNIMVVGQSGLGKSTLINTLFASHLIDSATGDDISALPVTKTTEMKISTHTLVEDRVRLNINVIDTPGFGDFIDNSKAWEPIVKYIKEQHSQYLRKELTAQRERFITDTRVHAILYFLQPNGKELSRLDVEALKRLTEIANVIPVIGKSDTLTLDERTEFRELIQNEFEKYNFKIYPYDSEELTDEELELNRSVRSIIPFAVVGSENEIEINGETFRGRKTRWSAINVEDINQSDFVYLREFLIRTHLQDLIETTSYIHYEGFRARQLIALKENANSRSSAHMSSNAIQR
B6: Cdc10(R298C), otherwise Cys-less (protein, UniProt P25342 1-322)
chain: B5 chain with R298C
B7: Shs1(E344C ΔCTE), otherwise Cys-less (domain or fragment, UniProt Q07657 1-348)
chain: MSTASTPPINLFRRKKEHKRGITYTMLLVGPAGTGKTAFANNLLETKIFPHKYQYGKSNASISSNPEVKVIAPTKVVSFNSKNGIPSYVSEFDPMRANLEPGITITSTSLELGGNKDQGKPEMNEDDTVFFNLIMTHGIGENLDDSLSSEEVMSYLEQQFDIVLAEETRIKRNPRFEDTRVHVALYFIEPTGHGLREVDVELMKSISKYTNVLPIITRADSFTKEELTQFRKNIMFDVERYNVPIYKFEVDPEDDDLESMEENQALASLQPFAIITSDTRDSEGRYVREYPWGIISIDDDKISDLKVLKNVLFGSHLQEFKDTTQNLLYENYRSEKLSSVANACEIGP

Target: T1, (His)6-Cdc12(C40A,C278S) (S. cerevisiae)
Assay: co-purification (IMAC on His6-Cdc12, then SEC); septin subunits co-expressed in E. coli from two DUET vectors; Ni-NTA in 300 mM KCl, chitin-agarose flow-through, Superdex 200 in 300 mM KCl, 50 mM Tris-HCl pH 8.0; fractions by SDS-PAGE and Coomassie; complex recaptured by IMAC after labelling

binding, binds:
B1
B2
B3
B4
B5
B6
B7

Target: T2, (His)6-Cdc12(L310C), otherwise Cys-less (S. cerevisiae)
Assay: as above

binding, binds:
B1
B5

Reference: article PMC4653696
